Holding throughout (assay type): cell-based
One assay deals with IMR90. The assay is described as follows: 72-h MTT assay IMR90. The conditions noted are these: Homo sapiens, IMR-90, 72 h, read-out: 72-h MTT IC50. The protocol:
(§1) The cell lines were obtained from the ATCC (American Type Culture Collection, 10801 University Boulevard, Manessas, Va. 20110-2209, USA). Standard 72-h MTT (thiazolyl blue; 3-[4,5-dimethylthiazol-2-yl]-2,5-diphenyltetrazolium bromide) assays were performed (Haselsberger, K.; Peterson, D. C.; Thomas, D. G.; Darling, J. L. Anti Cancer Drugs 1996, 7, 331-8; Loveland, B. E.; Johns, T. G.; Mackay, I. R.; Vaillant, F.; Wang, Z. X.; Hertzog, P. J. Biochemistry International 1992, 27, 501-10). In short: cells were seeded into 96-well plates according to doubling time and incubated overnight at 37° C. Test compounds were made up in DMSO and a ⅓ dilution series prepared in 100 μL cell media, added to cells (in triplicates) and incubated for 72 ho at 37° C. MTT was made up as a stock of 5 mg/mL in cell media and filter-sterilised. Media was removed from cells followed by a wash with 200 μL PBS. MTT solution was then added at 20 μL per well and incubated in the dark at 37° C. for 4 h. MTT solution was removed and cells again washed with 200 μL PBS. MTT dye was solubilised with 200 μL per well of DMSO with agitation.
(§2) Representative compounds of this invention were examined for their anti-proliferative effect against human tumour cell lines and immortalized non-transformed human cell lines (“normal” cell lines). […].

The test system of another assay is normal cell lines. Briefly: 72-h MTT assay, mean of normal cell lines. The following applies: Homo sapiens, read-out: 72-h MTT IC50, Mean (normal cell lines). The method, then: as §1, §2
Background: Tetrazolium dyes change colour on reduction, which living cells bring about.

Another assay concerns HT-29. The assay is described as follows: 72-h MTT assay HT-29. The following applies: Homo sapiens, HT-29, 72 h, read-out: 72-h MTT IC50. The protocol: as §1, §2
In a further assay the test system is HL-60. Briefly: 72-h MTT assay HL-60. The conditions noted are these: Homo sapiens, HL-60, 72 h, read-out: 72-h MTT IC50. The method, then: as §1, §2
Assay [1] deals with representative panel of human transformed tumour cell lines. Briefly: Anti-proliferative activity in a representative panel of human transformed tumour cell lines. The following applies: average over representative panel of human transformed tumour cell lines.
The subject of the next assay is K-562. The assay is described as follows: 72-h MTT assay K-562. The conditions noted are these: Homo sapiens, K562, 72 h, read-out: 72-h MTT IC50. The method, then:
as §1, §2

The subject of a further assay is CCRF-CEM. The assay is described as follows: 72-h MTT assay CCRF-CEM. The following applies: Homo sapiens, read-out: 72-h MTT IC50. The protocol: as §1, §2
The next assay deals with HeLa. The assay is described as follows: 72-h MTT assay HeLa. The conditions noted are these: Homo sapiens, read-out: 72-h MTT IC50. The method, then:
as §1, §2

Another assay relates to WI38. The assay is described as follows: 72-h MTT assay WI38. The following applies: Homo sapiens, WI-38, 72 h, read-out: 72-h MTT IC50. The protocol: as §1, §2
A further assay deals with MCF7. Briefly: 72-h MTT assay MCF7. The conditions noted are these: Homo sapiens, MCF7, 72 h, read-out: 72-h MTT IC50. The protocol: as §1, §2
The next assay concerns Hs27. The assay is described as follows: 72-h MTT assay Hs27. The following applies: Homo sapiens, HS27, 72 h, read-out: 72-h MTT IC50. The method, then:
as §1, §2

The next assay deals with A549. Briefly: 72-h MTT assay A549. The following applies: Homo sapiens, A549, 72 h, read-out: 72-h MTT IC50. The method, then:
as §1, §2

For a further assay, the system named is cancer cell lines. Briefly: 72-h MTT assay, mean of cancer cell lines. The conditions noted are these: Homo sapiens, read-out: 72-h MTT IC50, Mean (cancer cell lines). The protocol:
as §1, §2

Bounds are passed on as bounds.

On to `CC[C@H](CO)Nc1nc(NCc2ccccc2)c2ncn(C(C)C)c2n1` [Roscovitine, roscovitine, reference compound], for which the half-maximal inhibitory concentration (IC50) was above 20 µM in the assay with IMR90; above 20 µM in the assay on normal cell lines; 10.2 ± 2.7 µM in the assay with HT-29; 13.3 ± 1.1 µM in the assay on HL-60; around 10 µM in assay [1]; 40.4 ± 4.4 µM in the assay with K-562. Further, the concentration for half-maximal inhibition (IC50) with CCRF-CEM is 16.4 ± 0.8 µM; in the assay with HeLa, 16.5 ± 1.8 µM; in the assay on WI38, above 20 µM; with MCF7, 8.7 ± 0.5 µM; with Hs27, above 20 µM; with A549, 9.7 ± 1.1 µM. In the assay on cancer cell lines, the IC50 is 16.3 ± 10.2 µM.

As usually defined, the IC50 is the concentration needed to halve the response being measured.

For the origin of these results see patent publication US8846696B2, “Purine derivatives” (Cyclacel Limited, priority 2002, dated 2014).
